Here are results for one molecule from publication PMC12866690.

Results are given in words; binding and its absence hold for the method and conditions named. In cells and extracts the contact can be indirect. Binding can be weak; no strength is given.

Test [1] addresses Syntaxin 3B (mouse (endogenous in retina)). Kind of test: co-IP; anti-STX3B antibody and protein G beads; retinal lysates of light- and dark-adapted P30 WT mice; 20 mM HEPES pH 7.4, 150 mM NaCl, 10 mM CHAPS; 200 µg protein; immunoblot.
The target in test [2] is GST-tagged STX3 lacking the transmembrane domain. Nature of the test: pull-down; GST-STX3-dtm on Glutathione Sepharose beads; precleared retinal lysates of light- and dark-adapted P30 WT and Nrl-/- mice; 10 mM CHAPS, 5 mM EDTA in 1xPBS pH 7.3; overnight at 4 °C; immunoblot; only the target purified. A general note: In western blotting, separated proteins are transferred to a membrane and probed.

B1: cone arrestin 4 (protein, UniProt Q9EQP6 1-381)
chain: MSTVFKKTSSNGKFSIYLGKRDFVDDVDTVEPIDGVVLVDPEYLEGRKLFVRLTCAFRYGRDDLDVIGLTFRKDLYVQTKQVAPAEPTSIQGPLTALQERLLHKLGVNAYPFTLQMVANLPCSVTLQPGPEDSGKPCGVDFEVKSFCAENLEEKIPKSDSVQLVVRKVQFSALEPGPGPSAQTIRSFFLSSQPLQLQAWMDREVHYHGEAISVHVSINNYTNKVIRRIKIAVVQTTDVVLYSLDKYTKTVFVQEFTETVAANSSFSQTFAVTPLLAANCQKQGLALDGKLKHEDTNLASSTILRPGMNKELLGILVSYKVRVNLVVSYGGILGGLPASDVGVELPVILIHPKPSPGERAVATSSEDIVIEEFMQHNSQTQS
For B1, the binding entry in test [1] and in test [2] was “binds” throughout.
